Results from PubChem BioAssay AID2417 (National Center for Advancing Translational Sciences (NCATS), 2010).
The whole screen tested about 140,000 compounds, of which about 4,300 (3.1%) were called active. This list was built around the results that the source calls inconclusive (neither active nor inactive); the mix of calls is not that of the screen.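 The calls were made as follows: active = readout at or below -70, meaning at least 70% loss of cells showing the perinucleolar compartment, a nuclear body marking cancer cells; inconclusive = readout between -30 and a set limit; inactive = the rest.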

Assay: High Content Assay for Compounds that inhibit the Assembly of the Perinucleolar Compartment;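 also: plate controls were DMSO wells for no effect and camptothecin positive control wells for full effect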
Conditions: PC3M PTB-GFP, PNC prevalence imaging, 16 h; at 10 µM; stronger effect = lower value
Method in brief: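 PC3M cells stably expressing PTB-GFP, 750–1000 cells/well, treated 16 h at 37 °C with compound (23 nl of library stock), in duplicate. After paraformaldehyde fixation and Hoechst stain, imaged at 20x; PNC prevalence scored by image analysis.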

SMILES	activity change (PNC), negative = inhibition
c1ccc(C2CC(c3ccccc3)n3c(nc4ccccc43)N2)cc1 (stereo not drawn)	inactive: 27.6%
CCOc1ccc2c(c1)n(CO)c(=S)n2CO	inconclusive: -30.5%
CCOC(=O)c1c(NC(=O)Cn2nnc(-c3ccc(Cl)cc3)n2)sc(CC)c1C	inactive: 20.2%
CCOCCCNC(=O)C1CCC(CNS(=O)(=O)c2cccc3nsnc23)CC1 (stereo not drawn)	inactive: -9.56%
Cc1nc2ccccc2c2c1C(=O)N(CCC1=CCCCC1)C2=O	inconclusive: -34.4%
CCOc1ccc(S(=O)(=O)N2CCN(C(=O)c3cc4c(s3)CCCC4)CC2)cc1	inactive: -22.2%
Cn1cc([N+](=O)[O-])c(C(=O)Nc2ccc(C(=O)N3CCCCC3)cc2)n1	inconclusive: -39.4%
CC1=Nc2ccc(C)cc2N(Cc2ccccc2)C(=O)C1	inconclusive: -47.4%
CCOc1cc(/C=C/c2nc3cc(C)c(C)cc3s2)ccc1OCC(=O)N1CCOCC1	inconclusive: -61.3%
[O-][N+]12CCN(CC1)c1ccccc12	inconclusive: -57.1%
O=C(NCc1ccccc1)c1ccccc1CO	inconclusive: -49.7%
CC(=O)c1cc2c(cc1NC(=O)CN1CCN(c3cccc(C(F)(F)F)c3)CC1)OCO2	active: -100%
CCS(=O)(=O)N1CCC(C(=O)N2CCOCC2)CC1	inconclusive: -76.2%
Cc1cnn(-c2ccc3nnc(-c4ccc(Br)cc4)n3n2)c1	inconclusive: -45.3%
Cc1cc(C)c(C#N)c(SCC(=O)c2ccc(Cl)cc2Cl)n1	inconclusive: -38.3%
O=c1cc(-c2ccccc2Cl)oc2cccc(O)c12	inconclusive: -74.1%
Cc1ccc(NC(=O)CSc2ccccc2NC(=O)c2cccc(Cl)c2)cc1Cl	inconclusive: -47.1%
CCCn1c(NCc2ccc3c(c2)OCO3)nc2ccccc21	inactive: 9.15%
Cc1ccc(S(=O)(=O)N/N=C/c2cc(Br)c(C)o2)cc1	inactive: 16.8%
CCOC(=O)c1c(C)oc2cc(Br)c(OC(C)C(=O)OCC)cc12 (stereo not drawn)	active: -100%
O=C1c2ccccc2C(=O)N1C/C=C/CN1C(=O)c2ccccc2C1=O	inconclusive: -32.8%
O=C(OCC#CCSc1nnc(-c2ccccc2)o1)c1ccco1	inconclusive: -31.9%
O=C(Nc1ccc2c(c1)ncn2-c1ccccc1)c1ccco1	inactive: -21.2%
Cc1ccc(-c2cc(C(=O)NCc3cnn(C)c3)c3cc(Br)ccc3n2)cc1	inactive: -25.5%

SMILES	activity change (PNC), negative = inhibition
Cc1c(C(=O)N2CC(C)OC(C)C2)oc2ccccc12 (stereo not drawn)	inconclusive: -78.7%
Cc1nc(SC2CCOC2=O)c2c(C)c(C)sc2n1 (stereo not drawn)	inactive: 93.2%
C/C(Cl)=C\Cn1c(Nc2cccc(C)c2)nc2c1c(=O)n(C)c(=O)n2C	inconclusive: -40.5%
CCOC(=O)N1CCN(S(=O)(=O)c2ccc(OCC)c3ccccc23)CC1	inactive: 17.8%
N#CCc1c(C#N)c(N)nc(N2CCN(c3ccc(F)cc3)CC2)c1C#N	inconclusive: -31.7%
O=C1Nc2cccnc2Sc2ccccc21	inconclusive: -72.2%
CCN(CC)C(=S)SCC(=O)Nc1ccc(F)cc1	inactive: 5.18%
Cc1[nH]c(=O)[nH]c(=O)c1S(=O)(=O)N1CCOCC1	inconclusive: -59.1%
CCOC(=O)Nc1nnc(-c2ccccc2OC)s1	active: -119%
COCC(C)n1c(SCC(=O)NNC(=O)c2ccc(F)cc2)nc2ccccc2c1=O (stereo not drawn)	active: -93.8%
Cc1cccc(NC(=O)CN2C(=O)CNC2=O)c1	inactive: 48.7%
O=C(CC1NC(=O)NC1=O)Nc1ccc(Cl)cc1 (stereo not drawn)	inactive: -26.7%
CCC(C)(C)n1nnnc1C(c1cc2cc(C)ccc2[nH]c1=O)N1CCCC1 (stereo not drawn)	inconclusive: -39.1%
O=C(CN1C(=O)S/C(=C/c2ccncc2)C1=O)N1CCOCC1	inconclusive: -45.7%
Cc1c(CNC2CCCC(C)C2C)c(C(=O)O)c(C)n1Cc1ccccc1 (stereo not drawn)	inconclusive: -33.7%
CC(=O)Nc1ccc(NC(=O)C2CC(=O)N=C(N)S2)cc1 (stereo not drawn)	inconclusive: -39.5%
CCCC(=O)N=C1SC2CS(=O)(=O)CC2N1c1ccc(-c2nc3ccc(C)cc3s2)cc1 (stereo not drawn)	inconclusive: -53.7%
CCOC(=O)CNC(=O)CSc1ncnc2c1cnn2-c1ccccc1	inactive: 13.9%
COCC(C)NC(=O)c1ccc(-n2nc(C(F)(F)F)cc2-c2cccs2)cc1 (stereo not drawn)	inconclusive: -33.5%
COc1ccc(NC(=O)C(=O)NNC(=O)c2cccs2)cc1	active: -93.5%
CCn1c(SCC(=O)N2CCc3ccccc32)nnc1-c1ccncc1	inconclusive: -38.5%
CCCc1cc(C(=O)Nc2sc(C(C)=O)c(C)c2C(=O)OCC)no1	inactive: -26.5%
O=C1CC(Cc2ccccc2)C(=O)N1CCCn1ccnc1 (stereo not drawn)	inconclusive: -47.3%
COc1ccc(CNC(=O)C(c2ccco2)N(Cc2cccs2)C(=O)Cc2cccs2)cc1 (stereo not drawn)	inactive: -11.5%

SMILES	activity change (PNC), negative = inhibition
COc1cc(OC)c(C(=O)Nc2ccccc2-c2ccccc2)cc1OC	inconclusive: -38.5%
CN(Cc1c(O)ccc2c1oc(=O)c1ccccc12)C1CCCCC1	inconclusive: -59%
Cc1nn(-c2ccccc2)c(N2CCCC2)c1/C=C1\N=C(c2ccc(OC(C)C)cc2)OC1=O	inconclusive: -30.7%
Cc1ccccc1C(OCCN(C)C)C1CCCCC1 (stereo not drawn)	inactive: -5.25%
CN(C)C=NCCn1c(N2CCOCC2)nc2c1c(=O)n(C)c(=O)n2C	inconclusive: -76.8%
CCN(CC(=O)Nc1ccc2c(c1)OCCO2)Cc1cc(=O)oc2c(C)c(C)ccc12	inconclusive: -37%
Cc1ccccc1NC(=O)c1csc2c1CCCC2	inactive: 21.9%
Cc1c(N/C(=N/S(=O)(=O)c2ccc(Cl)cc2)c2ccccc2)c(=O)n(-c2ccccc2)n1C	inconclusive: -45.2%
Cc1cccc(NC(=O)c2sc3nc(-c4ccc(F)cc4)cn3c2C)n1	inconclusive: -34.2%
N#CC(C#N)=C(Nc1ccc(F)cc1)SCc1cccc(F)c1	inactive: -20.6%
COc1cccc(OC)c1C(=O)N1CCN(Cc2ccncc2)CC1	inactive: -22.6%
COc1ccc(OC)c(C(=O)c2ccc(C(=O)O)cc2)c1	inconclusive: -49.7%
CC(=O)CSc1ncnc2c1oc1ccccc12	inactive: -24.9%
O=C(NCc1ccc2c(c1)OCO2)c1c(O)c2cccc3c2n(c1=O)CCC3	inconclusive: -36.4%
Cc1ccc(C)c(-n2c(-c3csc(C)c3C)n[nH]c2=S)c1	inconclusive: -42.4%
ONC(=Nc1ccccc1)c1ccc(Cl)cc1	inconclusive: -50%
C/C(=N\N(C)C)C1=C(O)c2ccccc2C1=O	inconclusive: -47.6%
CCOC(=O)CSC1=C(C#N)C(c2sccc2C)CC(=O)N1 (stereo not drawn)	inconclusive: -49.6%
CN(CCOC(=O)c1ccc2c(c1)OCCO2)C(C)(C)C	inactive: 16.5%
CC(C)OC(=O)C(=O)NNc1ccccc1	inactive: -11.3%
O=C(NC(=S)Nc1ccc(Cc2ccncc2)cc1)c1ccccc1Cl	inactive: 54.8%
CC(=O)Nc1ccc2nc(C)n(Cc3ccc(Cl)cc3)c(=O)c2c1	active: -90.5%
O=C(NCc1cccs1)C(NS(=O)(=O)c1cccc2nsnc12)c1ccccc1 (stereo not drawn)	inactive: 46.1%
CCCCNC(=S)Nc1cccc2cnccc12	inactive: 31%

Retrieved by compound from the entries so far:
SMILES	activity change (PNC), negative = inhibition
Cc1nc2ccccc2c2c1C(=O)N(CCC1=CCCCC1)C2=O	inconclusive: -34.4%
[O-][N+]12CCN(CC1)c1ccccc12	inconclusive: -57.1%

(cont.)

SMILES	activity change (PNC), negative = inhibition
O=C(NCc1ccco1)C12CN(Cc3ccccc3)CC1C(c1ccc([N+](=O)[O-])cc1)=NO2 (stereo not drawn)	inactive: -1.04%
C=C(C)Cn1c(SCC#N)nc2ccccc2c1=O	inactive: 8.98%
O=C(Nc1nccs1)c1cc(S(=O)(=O)N2CCOCC2)ccc1Cl	inconclusive: -34%
N#Cc1ccc(N=c2ssnc2Cl)cc1	inconclusive: -39%
N#CC1=C2SCC(O)(c3ccccc3)N2C(=O)CC1c1ccccc1 (stereo not drawn)	inconclusive: -53.9%
CSc1ccccc1-n1nnnc1SCC(=O)NCc1cccs1	inconclusive: -35.1%
Cc1ccc(/C=N/n2c(-c3cccs3)n[nH]c2=S)cc1	inactive: 60.2%
N#CC1=C(N)Oc2cc(O)ccc2C1c1cccs1 (stereo not drawn)	active: -106%
COc1ccccc1-c1nc(C#N)c(NCc2ccc(F)cc2)o1	inconclusive: -37.2%
CCCCCCC(=O)N(O)C1CC(=O)N(c2ccc(Br)cc2)C1=O (stereo not drawn)	inconclusive: -40.1%
COC(=O)c1ccc(CSc2nnc(-c3ccncc3)n2Cc2ccccc2)o1	inactive: -3.14%
CC(C)CC(NC(=O)OC(C)(C)C)C(=O)NC(C(=O)N1CCCC1C(N)=O)C(C)C (stereo not drawn)	inconclusive: -34.8%
CCC(C)Nc1nc(Cl)nc(NCCOc2ccccc2)n1 (stereo not drawn)	inconclusive: -38.1%
CCn1ncc(C2=NOC(C(=O)Nc3cnn(C45CC6CC(CC(C6)C4)C5)c3)C2)c1C (stereo not drawn)	inconclusive: -40.1%
Cc1ccc(Nc2cnn(C34CC5CC(CC(CC(=O)O)(C5)C3)C4)c(=O)c2Cl)cc1C	inconclusive: -62.5%
O=C(N1CCOCC1)N1CCN(C(c2ccccc2)c2ccccc2)CC1	inactive: 106%
CC(=O)Nc1cccc(NC(=O)CCn2c(=O)sc3ccccc32)c1	inconclusive: -34.4%
COc1ccc(C(=O)CSc2nnc(CN3CCCCC3)n2-c2ccc(F)cc2)cc1OC	inconclusive: -56.8%
Cn1cnc(S(=O)(=O)N2CCc3ccccc32)c1	inactive: 8.2%
CCN(CC)c1ccc(C(=O)N2CCN(Cc3ccccc3)CC2)cc1	inactive: 8.85%
CCCN1C(=O)C2(C(C(=O)c3ccc(C)o3)=C(O)C(=O)N2CCCN2CCOCC2)c2ccccc21 (stereo not drawn)	inconclusive: -31.7%

In the list so far, these have an aryl thioether with sulfur outside any ring.
SMILES	activity change (PNC), negative = inhibition
Cc1cc(C)c(C#N)c(SCC(=O)c2ccc(Cl)cc2Cl)n1	inconclusive: -38.3%
Cc1ccc(NC(=O)CSc2ccccc2NC(=O)c2cccc(Cl)c2)cc1Cl	inconclusive: -47.1%
O=C(OCC#CCSc1nnc(-c2ccccc2)o1)c1ccco1	inconclusive: -31.9%
Cc1nc(SC2CCOC2=O)c2c(C)c(C)sc2n1 (stereo not drawn)	inactive: 93.2%
COCC(C)n1c(SCC(=O)NNC(=O)c2ccc(F)cc2)nc2ccccc2c1=O (stereo not drawn)	active: -93.8%
CCOC(=O)CNC(=O)CSc1ncnc2c1cnn2-c1ccccc1	inactive: 13.9%
CCn1c(SCC(=O)N2CCc3ccccc32)nnc1-c1ccncc1	inconclusive: -38.5%
CC(=O)CSc1ncnc2c1oc1ccccc12	inactive: -24.9%
C=C(C)Cn1c(SCC#N)nc2ccccc2c1=O	inactive: 8.98%
CSc1ccccc1-n1nnnc1SCC(=O)NCc1cccs1	inconclusive: -35.1%
COC(=O)c1ccc(CSc2nnc(-c3ccncc3)n2Cc2ccccc2)o1	inactive: -3.14%
COc1ccc(C(=O)CSc2nnc(CN3CCCCC3)n2-c2ccc(F)cc2)cc1OC	inconclusive: -56.8%
